The record followed here is doi:10.1101/2021.02.05.429385.

The target in series [1] is hnRNP K (UniProt P61978). Put plainly: fluorescence anisotropy. (Polarisation of emitted light reports the rotation of a fluorescent probe.)
For series [2], the target named is hnRNP K (UniProt P61978). The experiment in a line: thermal shift. The note with it: letters put together from the description.

The exact form of at least one protein or probe is not confirmed. For some of these results: A weaker result is weaker than the reference pair of the same experiment. For some of these results: At least one verdict was read from the data and is not stated in words by the source.

The sequence “CGCCCCCCCCCACCCCCCGCAGUAAUAAAGGCCCCUGA [hRUNX1 5'UTR]” came in with a dissociation constant Kd with hnRNP K [1] of 14.2 nM.

Take “CGCGCGCGCGCACGCGCCGCAGUAAUAAAGGCGCCUGA [hRUNX1 5'UTR(mut)]”: the Kd with hnRNP K [1] came out at 882 nM.

As for “TCCTCCTCCCTTCCCCTCCCGGTCCCTA [mRunx1 int5-6 DNA]”, the binding result with hnRNP K [2] is listed as “binds”. As to “TCCTCCTCGCTTCGCCTCGCGGTCGCTA [mRunx1 int5-6(mut) DNA]”, the binding result with hnRNP K [2] is on record as “binds more weakly”.

What is called Kd is the free concentration of one partner at which half of the binding sites on the other are occupied at equilibrium, for simple one-to-one binding. A higher Kd goes with lower affinity.
